PubChem BioAssay AID686937, Drosophila RNAi Screening Center – 2013
In all, the deposit lists about 23,000 reagents; below is a random part of those with a known target gene and a result. 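Reduced-secretion tags in replicate 1 do not always agree with the z-scores; no criterion for assigning the tags was given.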 The numbers tell different reagents against one gene apart. A plus sign joins genes that one reagent is predicted to hit. Further read-outs or replicates are left out here. Reagent sequences are not shown. Not stated in the record: the amount of reagent.

Test: 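Genes in the fly needed for secretion of protein constitutively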 (primary screen)
Cells: Drosophila S2 cells expressing secreted horseradish peroxidase
Reagents: long dsRNA against Drosophila genes
Timing: about 5.5 days (5 days dsRNA, then 12 h reporter induction)
Conditions: reporter expression induced after 5 days of dsRNA, read 12 h later; inducer not stated
Measurement: 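After 5 days of dsRNA and 12 h of reporter induction, medium peroxidase read by chemiluminescence and scored as per-plate z-score; higher values mean more reporter released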
Direction: z-score: higher = more reporter secreted into medium

Which result is listed for Cnep1r1?
z-score, replicate 1: 0.39

What is on record for dgt2?
z-score, replicate 1: 1.14

Which result is listed for Rab5?
z-score, replicate 1: 0.16

With CG5921 #1, what does the deposit list?
z-score, replicate 1: 0.53

How did the screen score CG5921 #2?
z-score, replicate 1: 0.23

For gny, what does the deposit list?
z-score, replicate 1: 0.5

How did the screen score Targ3?
z-score, replicate 1: 0.77

With ems, how do the results read?
z-score, replicate 1: 0.32

How did the screen score CG8757?
z-score, replicate 1: 0.22

What is on record for CG4960?
z-score, replicate 1: 0.11

With CG5500, what was measured?
z-score, replicate 1: 0.07

For Cyp4g1, how do the results read?
z-score, replicate 1: 0.17

Which result is listed for Klp67A?
z-score, replicate 1: -0.3

What is on record for Cyp28c1?
z-score, replicate 1: 0.21

How did the screen score Gpdh2?
z-score, replicate 1: 0.05

What is on record for CG7139?
z-score, replicate 1: 0.33

With CG10959, what does the deposit list?
z-score, replicate 1: 0.49

Which result is listed for CG14200?
z-score, replicate 1: -4.9

What is on record for Ilp5?
z-score, replicate 1: 0.08

Which result is listed for Ice2?
z-score, replicate 1: 0.38

Which result is listed for hll?
z-score, replicate 1: 0.02

What is on record for CG5913?
z-score, replicate 1: 0.18

How did the screen score CG18004?
z-score, replicate 1: 0.3

What is on record for CG15739?
z-score, replicate 1: 0.29

For tbc, what was measured?
z-score, replicate 1: -1.55

What is on record for Cpr65Ax2 + Cpr65Ax1 #1?
z-score, replicate 1: 0.35

With Cpr65Ax2 + Cpr65Ax1 #2, what was measured?
z-score, replicate 1: 0.28

What did the screen give for CG7084?
z-score, replicate 1: 0.3

What is on record for CG6321?
z-score, replicate 1: 0.2

How did the screen score Rrp40?
z-score, replicate 1: -1.86

How did the screen score CG6015?
z-score, replicate 1: -4.88

What did the screen give for CG13685?
z-score, replicate 1: 0.25

What did the screen give for rost?
z-score, replicate 1: 0.33

What did the screen give for AstCC?
z-score, replicate 1: -0.03

Which result is listed for nopo?
z-score, replicate 1: 0.09

With CG42271 #1, how do the results read?
z-score, replicate 1: 0.4

Which result is listed for CG42271 #2?
z-score, replicate 1: -1

For Fatp (retired record), what was measured?
z-score, replicate 1: 0.23

Which result is listed for CG12035?
z-score, replicate 1: 0.37

With CG2006 + Spase12, what was measured?
z-score, replicate 1: -0.55
